Values from PubChem BioAssay AID1259405 (NCATS, 2018)

Screen: 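Mouse-designed siRNAs used to find CHO productivity engineering targets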 (primary screen)
System: Chinese hamster CHO-K1 ovary cells with stable secreted eGFP expression
Knock-down reagent: single siRNA against mouse genes, 0.8 pmol siRNA per well (2 µl of 400 nM stock)
Duration: 3 days
Detection: 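Percent of the per-plate non-targeting control median for intracellular GFP per well by laser scanning cytometry and for cell viability by ATP luminescence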
Scale: GFP, % of control: higher = more GFP per well, higher productivity; viability (ATP), % of control: higher = more viable cells (more ATP)
Rule for the call: 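Called active when intracellular GFP, relative to negative control, is at or above 120%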
In all, the deposit lists about 50,000 reagents; below is an unselected part. About 4,000 of them (8%) were called active. 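Mouse siRNA library applied to hamster cells; one well for each siRNA.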 The numbers tell different reagents against one gene apart.

Gene,reagent no.,"GFP, % of control","viability (ATP), % of control",call
Lcp2,1,44.3,69.3,inactive
Lcp2,2,77.9,82.5,inactive
Lcp2,3,87.2,108,inactive
Cyp2c37,1,111,48.1,inactive
Cyp2c37,2,153,98,active
Cyp2c37,3,101,60.1,inactive
Cdx4,1,80.9,74.5,inactive
Cdx4,2,94.4,87.9,inactive
Cdx4,3,67.9,62,inactive
Stx3,1,113,90.8,inactive
Stx3,2,93.9,61.8,inactive
Glmn,1,64.6,77.4,inactive
Glmn,2,66.3,82,inactive
Glmn,3,67.7,90,inactive
Kcnj4,1,97.2,83.1,inactive
Kcnj4,2,64.1,69.3,inactive
Kcnj4,3,90.8,101,inactive
Zfp251,1,42,63.6,inactive
Zfp251,2,61.5,76.6,inactive
Zfp251,3,42.8,72.3,inactive
Bltp1,1,113,114,inactive
Bltp1,2,117,53.9,inactive
Bltp1,3,82.5,84,inactive
Efcab12,1,124,83.3,active
Efcab12,2,82.6,86.4,inactive
Efcab12,3,99.6,112,inactive
Lin54,1,58.9,56.9,inactive
Lin54,2,85.1,111,inactive
Lin54,3,82.3,92.4,inactive
Rbm19,1,99.9,85.8,inactive
Rbm19,2,68.8,76,inactive
Zbtb48,1,67.3,63.5,inactive
Zbtb48,2,79.1,55.9,inactive
Zbtb48,3,59.6,69.4,inactive
Rabepk,1,117,85.4,inactive
Rabepk,2,79.3,60.1,inactive
Rabepk,3,31.1,55.4,inactive
Tm4sf5,1,63.6,51.8,inactive
Tm4sf5,2,54.3,72.4,inactive
Tm4sf5,3,54.6,78.1,inactive
Zpr1,1,86.8,80.9,inactive
Zpr1,2,88.2,68.1,inactive
Zpr1,3,109,105,inactive
Atg16l1,1,41.1,32.2,inactive
Atg16l1,2,118,104,inactive
Atg16l1,3,34.7,44.9,inactive
Cd81,1,42.6,80.7,inactive
Cd81,2,80.3,103,inactive
Cd81,3,72.6,70.9,inactive
Krt5,1,75.7,61.3,inactive
Krt5,2,84.5,63.5,inactive
Arpp19,1,70.4,52.3,inactive
Arpp19,2,79.7,73,inactive
Arpp19,3,43,50.7,inactive
Arhgdig,1,58.9,69,inactive
Arhgdig,2,122,121,active
Arhgdig,3,83.6,101,inactive
Ddx1,1,72.4,49.8,inactive
Ddx1,2,50.1,30,inactive
Ddx1,3,167,120,active
Lgi3,1,115,88.1,inactive
Lgi3,2,47.8,82.5,inactive
Lgi3,3,65.7,67,inactive
Nnt,1,106,107,inactive
Nnt,2,78.5,77.3,inactive
Nnt,3,61.5,89.8,inactive
Hdgfl2,1,38.8,48.2,inactive
Hdgfl2,2,67.7,39.2,inactive
Hdgfl2,3,81.4,65.9,inactive
Trak1,1,77.1,80.8,inactive
Trak1,2,65.2,82.9,inactive
C130021I20Rik,1,65.9,67.1,inactive
C130021I20Rik,2,74,97.5,inactive
C130021I20Rik,3,87.9,95.6,inactive
Or8k16,1,67.3,62.5,inactive
Or8k16,2,80.4,73.1,inactive
Or8k16,3,81.7,53.5,inactive
Lep,1,101,76,inactive
Lep,2,94.3,84.1,inactive
Lep,3,118,103,inactive
Gm57858,1,34.1,87.5,inactive
Gm57858,2,73.5,75,inactive
Gm57858,3,121,107,active
Prkag2,1,56.7,50.3,inactive
Prkag2,2,66.4,69.4,inactive
Kif27,1,101,119,inactive
Kif27,2,73.5,102,inactive
Nufip1,1,113,72,inactive
Nufip1,2,60,66.6,inactive
Nufip1,3,56,71.1,inactive
Mrgprh,1,59,102,inactive
Mrgprh,2,84.8,84.4,inactive
Mrgprh,3,84.4,73.8,inactive
Panx3,1,20.1,31.7,inactive
Panx3,2,76.6,89.3,inactive
Panx3,3,66.7,60.8,inactive
Thbs4,1,101,113,inactive
Thbs4,2,58.2,85.5,inactive
Aox3,1,66.3,69.3,inactive
Aox3,2,68,71.2,inactive
Aox3,3,80.3,89.8,inactive
Cimip2a,1,68.8,67.4,inactive
Cimip2a,2,81.5,68.7,inactive
Cimip2a,3,91.9,104,inactive
Crybb1,1,152,72.6,active
Crybb1,2,51.4,62.8,inactive
Crybb1,3,143,123,active
